Test results as given in the supplement of paper PMC10849652.
The list shows a part of the results.

Chains of the proteins cited; added tags and fusions are not shown. Lines headed by an entry give the natural chain unless they say otherwise; changes in a name come on top.
UniProt Q9BRD0: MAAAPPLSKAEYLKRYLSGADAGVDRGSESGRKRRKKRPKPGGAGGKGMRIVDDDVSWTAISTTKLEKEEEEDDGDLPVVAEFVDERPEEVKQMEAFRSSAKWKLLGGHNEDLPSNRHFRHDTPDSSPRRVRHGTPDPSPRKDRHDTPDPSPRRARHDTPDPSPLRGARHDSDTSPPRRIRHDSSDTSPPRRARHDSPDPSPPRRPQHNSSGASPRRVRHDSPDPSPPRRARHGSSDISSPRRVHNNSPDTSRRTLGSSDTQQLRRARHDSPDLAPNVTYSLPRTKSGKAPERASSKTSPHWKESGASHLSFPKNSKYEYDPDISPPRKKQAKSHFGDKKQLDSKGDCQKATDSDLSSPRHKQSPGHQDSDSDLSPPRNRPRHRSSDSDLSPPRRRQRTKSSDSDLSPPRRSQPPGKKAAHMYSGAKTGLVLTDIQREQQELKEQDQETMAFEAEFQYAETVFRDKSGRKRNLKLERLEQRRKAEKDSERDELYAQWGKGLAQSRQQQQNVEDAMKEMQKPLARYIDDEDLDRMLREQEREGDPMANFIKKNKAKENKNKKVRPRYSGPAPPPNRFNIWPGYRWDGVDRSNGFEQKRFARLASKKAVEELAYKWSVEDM
UniProt Q9Y297: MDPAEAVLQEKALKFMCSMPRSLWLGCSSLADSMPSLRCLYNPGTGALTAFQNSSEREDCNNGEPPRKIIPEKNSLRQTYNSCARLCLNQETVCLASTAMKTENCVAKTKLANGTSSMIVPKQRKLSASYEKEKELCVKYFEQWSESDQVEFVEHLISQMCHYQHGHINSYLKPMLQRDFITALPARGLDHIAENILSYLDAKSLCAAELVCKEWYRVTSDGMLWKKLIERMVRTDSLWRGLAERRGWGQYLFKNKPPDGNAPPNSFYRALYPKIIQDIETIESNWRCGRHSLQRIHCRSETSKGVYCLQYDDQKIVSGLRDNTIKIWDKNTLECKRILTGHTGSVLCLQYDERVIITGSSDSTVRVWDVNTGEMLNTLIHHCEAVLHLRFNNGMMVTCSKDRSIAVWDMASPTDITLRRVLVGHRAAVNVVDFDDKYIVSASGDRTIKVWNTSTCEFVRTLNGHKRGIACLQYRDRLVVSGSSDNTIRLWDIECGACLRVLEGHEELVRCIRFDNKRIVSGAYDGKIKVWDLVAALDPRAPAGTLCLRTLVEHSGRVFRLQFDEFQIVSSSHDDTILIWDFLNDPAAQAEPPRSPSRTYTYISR
UniProt Q96MD7: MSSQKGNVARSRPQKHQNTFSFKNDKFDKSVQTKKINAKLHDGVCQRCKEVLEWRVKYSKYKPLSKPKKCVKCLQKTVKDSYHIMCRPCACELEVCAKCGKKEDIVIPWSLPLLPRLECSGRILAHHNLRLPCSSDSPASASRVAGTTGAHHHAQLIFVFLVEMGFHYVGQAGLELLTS
UniProt Q9BPX7: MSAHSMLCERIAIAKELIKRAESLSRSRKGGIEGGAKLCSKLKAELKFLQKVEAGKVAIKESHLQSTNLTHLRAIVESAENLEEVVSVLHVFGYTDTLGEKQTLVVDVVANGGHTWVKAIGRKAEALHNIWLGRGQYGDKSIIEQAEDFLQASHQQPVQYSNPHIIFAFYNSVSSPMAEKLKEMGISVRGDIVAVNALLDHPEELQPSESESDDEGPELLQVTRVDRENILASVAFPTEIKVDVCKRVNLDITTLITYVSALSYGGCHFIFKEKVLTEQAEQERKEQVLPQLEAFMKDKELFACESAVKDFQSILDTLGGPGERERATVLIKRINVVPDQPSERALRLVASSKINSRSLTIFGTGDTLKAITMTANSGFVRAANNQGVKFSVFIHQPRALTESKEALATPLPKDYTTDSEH
UniProt Q96NL8: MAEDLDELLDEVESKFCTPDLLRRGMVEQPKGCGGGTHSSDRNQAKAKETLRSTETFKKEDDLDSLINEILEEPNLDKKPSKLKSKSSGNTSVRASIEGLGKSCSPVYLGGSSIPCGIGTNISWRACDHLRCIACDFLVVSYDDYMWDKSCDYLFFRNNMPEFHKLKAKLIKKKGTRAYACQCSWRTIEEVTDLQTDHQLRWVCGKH
UniProt Q504U0: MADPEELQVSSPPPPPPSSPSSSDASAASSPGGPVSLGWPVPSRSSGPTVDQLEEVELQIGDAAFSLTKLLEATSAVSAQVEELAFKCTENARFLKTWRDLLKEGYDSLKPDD
UniProt Q9BTV7: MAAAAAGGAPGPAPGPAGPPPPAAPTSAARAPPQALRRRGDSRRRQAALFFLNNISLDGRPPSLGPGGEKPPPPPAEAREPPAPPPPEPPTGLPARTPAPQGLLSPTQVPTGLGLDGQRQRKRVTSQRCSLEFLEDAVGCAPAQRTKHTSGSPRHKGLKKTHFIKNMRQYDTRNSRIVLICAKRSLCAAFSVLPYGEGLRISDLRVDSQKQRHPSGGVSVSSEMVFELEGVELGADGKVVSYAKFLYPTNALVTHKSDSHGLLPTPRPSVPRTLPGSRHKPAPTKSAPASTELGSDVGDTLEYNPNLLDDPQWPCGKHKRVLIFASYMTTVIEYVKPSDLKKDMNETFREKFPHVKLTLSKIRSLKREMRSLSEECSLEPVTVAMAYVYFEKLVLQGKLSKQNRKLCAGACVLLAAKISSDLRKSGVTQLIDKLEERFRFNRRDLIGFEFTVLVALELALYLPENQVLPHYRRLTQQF
UniProt Q9BSF0: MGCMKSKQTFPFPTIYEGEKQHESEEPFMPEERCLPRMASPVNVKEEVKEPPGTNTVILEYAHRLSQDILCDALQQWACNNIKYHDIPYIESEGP
UniProt Q6PH81: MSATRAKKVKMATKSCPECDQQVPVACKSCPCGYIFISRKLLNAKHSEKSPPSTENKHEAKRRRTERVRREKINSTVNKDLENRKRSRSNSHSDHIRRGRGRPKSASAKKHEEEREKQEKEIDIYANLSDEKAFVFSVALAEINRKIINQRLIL
UniProt Q8N3J3: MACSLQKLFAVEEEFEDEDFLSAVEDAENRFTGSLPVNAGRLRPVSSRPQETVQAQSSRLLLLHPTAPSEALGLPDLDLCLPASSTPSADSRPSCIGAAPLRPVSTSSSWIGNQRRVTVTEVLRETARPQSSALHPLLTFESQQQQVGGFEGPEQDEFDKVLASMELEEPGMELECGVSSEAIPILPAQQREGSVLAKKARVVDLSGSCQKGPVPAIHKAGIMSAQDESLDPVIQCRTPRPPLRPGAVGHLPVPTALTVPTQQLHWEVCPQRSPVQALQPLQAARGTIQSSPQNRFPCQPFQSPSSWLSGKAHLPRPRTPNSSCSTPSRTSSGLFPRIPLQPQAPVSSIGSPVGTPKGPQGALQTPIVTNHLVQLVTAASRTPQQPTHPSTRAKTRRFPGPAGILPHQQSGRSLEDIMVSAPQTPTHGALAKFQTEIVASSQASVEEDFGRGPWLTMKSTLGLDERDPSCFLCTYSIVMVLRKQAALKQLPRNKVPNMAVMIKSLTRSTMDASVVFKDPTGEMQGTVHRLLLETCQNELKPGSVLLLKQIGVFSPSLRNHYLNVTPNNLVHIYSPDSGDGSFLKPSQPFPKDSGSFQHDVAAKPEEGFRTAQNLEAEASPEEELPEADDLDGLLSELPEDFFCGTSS
UniProt Q96F05: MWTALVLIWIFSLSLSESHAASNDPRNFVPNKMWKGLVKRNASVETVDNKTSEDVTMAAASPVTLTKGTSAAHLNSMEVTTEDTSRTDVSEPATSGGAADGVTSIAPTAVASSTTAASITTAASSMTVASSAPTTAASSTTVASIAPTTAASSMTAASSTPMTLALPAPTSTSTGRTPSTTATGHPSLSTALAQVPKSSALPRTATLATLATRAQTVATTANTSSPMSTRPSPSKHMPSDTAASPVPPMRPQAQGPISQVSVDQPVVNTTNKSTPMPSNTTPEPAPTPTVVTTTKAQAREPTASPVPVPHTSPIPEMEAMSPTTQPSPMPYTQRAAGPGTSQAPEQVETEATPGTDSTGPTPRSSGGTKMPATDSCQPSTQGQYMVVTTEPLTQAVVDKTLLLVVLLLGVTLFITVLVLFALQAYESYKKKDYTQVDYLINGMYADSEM
UniProt Q9NWQ9: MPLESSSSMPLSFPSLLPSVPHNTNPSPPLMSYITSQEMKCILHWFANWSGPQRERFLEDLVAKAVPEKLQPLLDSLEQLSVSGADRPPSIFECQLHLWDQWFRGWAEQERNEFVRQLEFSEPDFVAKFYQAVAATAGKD
UniProt Q7Z4R8: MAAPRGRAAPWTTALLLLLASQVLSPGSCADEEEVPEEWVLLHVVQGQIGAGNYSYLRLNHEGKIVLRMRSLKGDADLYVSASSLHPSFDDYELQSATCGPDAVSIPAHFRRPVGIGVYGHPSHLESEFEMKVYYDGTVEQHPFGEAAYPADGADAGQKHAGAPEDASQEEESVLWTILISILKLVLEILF
UniProt P00736: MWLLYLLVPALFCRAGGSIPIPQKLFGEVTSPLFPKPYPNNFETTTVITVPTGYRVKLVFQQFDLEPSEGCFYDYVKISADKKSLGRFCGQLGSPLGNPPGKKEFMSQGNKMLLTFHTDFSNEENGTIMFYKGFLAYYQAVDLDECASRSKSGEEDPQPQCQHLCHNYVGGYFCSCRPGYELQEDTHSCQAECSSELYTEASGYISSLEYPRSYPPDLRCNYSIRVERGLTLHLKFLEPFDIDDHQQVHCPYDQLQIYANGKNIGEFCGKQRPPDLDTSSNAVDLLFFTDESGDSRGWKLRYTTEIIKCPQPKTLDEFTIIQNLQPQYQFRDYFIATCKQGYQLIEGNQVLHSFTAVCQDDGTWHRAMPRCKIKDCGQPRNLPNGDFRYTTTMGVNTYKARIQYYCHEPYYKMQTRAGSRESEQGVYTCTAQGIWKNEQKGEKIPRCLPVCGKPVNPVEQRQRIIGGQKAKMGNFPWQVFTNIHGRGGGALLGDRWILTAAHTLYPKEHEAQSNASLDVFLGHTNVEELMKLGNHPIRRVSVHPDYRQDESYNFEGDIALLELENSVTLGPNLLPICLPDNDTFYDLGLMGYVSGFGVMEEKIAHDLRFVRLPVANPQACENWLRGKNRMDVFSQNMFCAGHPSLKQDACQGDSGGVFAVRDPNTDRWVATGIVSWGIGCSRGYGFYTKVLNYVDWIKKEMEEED
UniProt Q86VG3: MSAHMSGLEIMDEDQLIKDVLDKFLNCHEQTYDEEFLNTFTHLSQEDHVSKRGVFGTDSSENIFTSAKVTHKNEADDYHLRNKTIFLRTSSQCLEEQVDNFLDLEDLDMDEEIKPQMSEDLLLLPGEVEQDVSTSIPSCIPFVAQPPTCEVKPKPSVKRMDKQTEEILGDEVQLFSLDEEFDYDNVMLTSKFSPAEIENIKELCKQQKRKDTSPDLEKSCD
UniProt Q96LW7: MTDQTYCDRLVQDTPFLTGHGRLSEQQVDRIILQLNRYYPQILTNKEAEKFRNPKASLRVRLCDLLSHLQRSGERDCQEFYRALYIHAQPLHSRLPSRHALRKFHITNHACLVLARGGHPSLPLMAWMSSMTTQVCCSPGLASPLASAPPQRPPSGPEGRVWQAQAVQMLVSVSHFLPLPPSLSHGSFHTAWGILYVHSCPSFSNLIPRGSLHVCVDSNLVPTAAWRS
UniProt P0DMB2: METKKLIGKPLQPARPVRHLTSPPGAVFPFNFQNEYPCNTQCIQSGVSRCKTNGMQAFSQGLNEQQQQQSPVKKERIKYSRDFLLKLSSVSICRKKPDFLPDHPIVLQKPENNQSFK
UniProt Q01518, whole entry, looked up: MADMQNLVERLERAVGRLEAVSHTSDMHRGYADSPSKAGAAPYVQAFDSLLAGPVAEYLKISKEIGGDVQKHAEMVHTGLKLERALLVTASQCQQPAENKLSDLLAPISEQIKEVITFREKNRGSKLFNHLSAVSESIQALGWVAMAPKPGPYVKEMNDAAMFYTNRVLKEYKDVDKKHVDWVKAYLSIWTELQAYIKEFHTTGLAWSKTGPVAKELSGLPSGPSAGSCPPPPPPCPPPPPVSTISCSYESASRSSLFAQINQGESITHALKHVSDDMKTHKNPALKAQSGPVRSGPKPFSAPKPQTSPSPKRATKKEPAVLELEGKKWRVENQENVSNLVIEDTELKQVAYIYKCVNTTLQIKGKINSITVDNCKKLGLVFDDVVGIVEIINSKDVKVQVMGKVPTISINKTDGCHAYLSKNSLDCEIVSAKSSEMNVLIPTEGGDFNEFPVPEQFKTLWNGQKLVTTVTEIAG
UniProt Q7Z6I8: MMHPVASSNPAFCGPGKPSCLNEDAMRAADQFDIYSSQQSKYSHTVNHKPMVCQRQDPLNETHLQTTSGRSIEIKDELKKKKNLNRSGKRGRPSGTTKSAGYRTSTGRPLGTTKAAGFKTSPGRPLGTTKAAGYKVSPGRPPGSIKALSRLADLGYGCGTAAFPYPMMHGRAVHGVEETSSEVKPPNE
UniProt Q9NS00: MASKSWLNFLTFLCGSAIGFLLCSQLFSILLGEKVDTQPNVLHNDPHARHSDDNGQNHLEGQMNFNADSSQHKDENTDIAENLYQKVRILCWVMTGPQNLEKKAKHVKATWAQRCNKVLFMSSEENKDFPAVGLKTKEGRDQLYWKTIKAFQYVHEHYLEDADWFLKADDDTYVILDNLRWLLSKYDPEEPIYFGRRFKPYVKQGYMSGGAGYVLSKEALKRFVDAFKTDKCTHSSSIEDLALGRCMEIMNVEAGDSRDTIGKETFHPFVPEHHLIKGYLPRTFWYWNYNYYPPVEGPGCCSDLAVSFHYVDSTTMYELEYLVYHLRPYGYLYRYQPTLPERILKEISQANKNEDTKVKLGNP

Experiments:
Test in all cases: log2 fold change, soluble protein after heating vs DMSO (PISA); higher = thermal stabilisation; K562 lysate, 10 uM; active = over 0.2 and 3.5 SD of the protein, either way, in both replicates (recomputed)
nilotinib = compound: Cc1cn(-c2cc(NC(=O)c3ccc(C)c(Nc4nccc(-c5cccnc5)n4)c3)cc(C(F)(F)F)c2)cn1 [nilotinib]
Procedure, shortened: (§1)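 A 30 min treatment with 10 μM compound was applied to crude K562 extract at 1 mg/mL protein in PBS pH 7.4 with 1 mM MgCl2. Heating for 3 min spanned 48°C-58°C, after which aliquots were pooled, adjusted to 0.5% NP-40 at 4°C and spun at 21,000xg for 90 min. TMTpro 16plex LC-MS/MS of the supernatant, with channel sums equalised, gave values recorded as log-two fold change in thermal stability against solvent controls, from duplicates.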

[1] = compound: Cc1nc(Nc2n[nH]c3c2CN(C(=O)N[C@H](CN(C)C)c2ccccc2)C3(C)C)c2sccc2n1
Procedure, shortened: as §1

dasatinib = compound: Cc1nc(Nc2ncc(C(=O)Nc3c(C)cccc3Cl)s2)cc(N2CCN(CCO)CC2)n1 [dasatinib]
Procedure, shortened: as §1

[2] = compound: Cc1ncc(-c2ccnc(Nc3ccc(S(C)(=O)=O)cc3)n2)n1C(C)C
Procedure, shortened: as §1

[3] = compound: Cn1cc(-c2ccc3c(c2)CCN3C(=O)Cc2cccc(C(F)(F)F)c2)c2c(N)ncnc21
Procedure, shortened: as §1

quisinostat = compound: Cn1cc(CNCC2CCN(c3ncc(C(=O)NO)cn3)CC2)c2ccccc21 [quisinostat]
Procedure, shortened: as §1

tipifarnib = compound: Cn1cncc1[C@@](N)(c1ccc(Cl)cc1)c1ccc2c(c1)c(-c1cccc(Cl)c1)cc(=O)n2C [tipifarnib]
Procedure, shortened: as §1

[4] = compound: NC(=O)Nc1cc(-c2cccc(F)c2)sc1C(=O)N[C@H]1CCCNC1
Procedure, shortened: as §1

[5] = compound: NC(=O)c1cnc(N[C@@H]2CCCC[C@@H]2N)nc1Nc1cccc(-n2nccn2)c1
Procedure, shortened: as §1

[6] = compound: NC1(c2ccc(-c3nc4ccn5c(=O)[nH]nc5c4cc3-c3ccccc3)cc2)CCC1
Procedure, shortened: as §1

Measured: log2 fold change

C1orf131 isoform 5 (UniProt Q8NDD1)
inactive: nilotinib -0.106 | [1] -0.059 | dasatinib 0.048 | [2] -0.135 | [3] 0.034 | quisinostat -0.103 | tipifarnib 0.073 | [4] -0.025 | [5] -0.035 | [6] 0.002

BUD13 (UniProt Q9BRD0)
inactive: nilotinib -0.036 | [1] 0.111 | dasatinib -0.094 | [2] 0 | [3] 0.019 | quisinostat -0.044 | tipifarnib 0.028 | [4] -0.014 | [6] -0.019

BTRC (UniProt Q9Y297)
inactive: nilotinib 0.006 | [1] 0.02 | [2] -0.003 | tipifarnib 0.02 | [5] 0.059 | [6] 0.031

C9orf85 isoform 1 (UniProt Q96MD7)
inactive: nilotinib -0.016 | [1] -0.002 | dasatinib -0.012 | [2] -0.06 | [3] 0.039 | tipifarnib -0.009

CALR (UniProt K7EJB9)
inactive: nilotinib -0.467 | [1] 0.018 | [2] 0.121 | tipifarnib 0.071 | [5] -0.016

CANX (UniProt D6RHJ3)
inactive: nilotinib -0.055 | [1] 0.129 | [2] 0.191 | tipifarnib 0.126 | [5] -0.103

C1orf159 isoform 4 (UniProt Q96HA4)
inactive: dasatinib 0.071 | [3] -0.12

CANX isoform 2 (UniProt P27824)
inactive: nilotinib -0.006 | [1] 0.008 | dasatinib 0.012 | [2] -0.02 | [3] -0.02 | quisinostat -0.029 | tipifarnib -0.064 | [4] -0.011 | [5] -0.004 | [6] -0.011

C3AR1 (UniProt Q16581)
inactive: nilotinib -0.026 | [1] 0.286 | [2] -0.111 | quisinostat 0.065 | tipifarnib -0.036 | [4] -0.033

CALM2 (UniProt P0DP24)
inactive: nilotinib -0.009 | [1] 0.014 | dasatinib -0.013 | [2] 0.022 | [3] -0.001 | quisinostat -0.178 | tipifarnib 0.016 | [4] -0.053 | [5] -0.014 | [6] -0.06

C7orf25 isoform 2 (UniProt Q9BPX7)
inactive: dasatinib 0.05 | [3] -0.064 | quisinostat -0.092 | [4] -0.006 | [5] -0.01 | [6] -0.12

C4A (UniProt P0C0L4)
inactive: dasatinib 0.047 | [3] 0.033 | quisinostat -0.095 | [4] 0.015 | [5] -0.133 | [6] -0.044

CAD (UniProt H7BZB3)
active: [6] 0.551

C8orf37 (UniProt Q96NL8)
inactive: dasatinib 0.083 | [3] 0.056 | quisinostat 0.004 | [4] -0.01 | [5] 0.298 | [6] 0.029

C4orf46 (UniProt Q504U0)
inactive: dasatinib 0.047 | [3] 0.089 | [6] 0.042

CABLES2 (UniProt Q9BTV7)
inactive: quisinostat -0.026 | [4] 0.016 | [5] 0.04

C2orf88 (UniProt Q9BSF0)
inactive: quisinostat 0.018 | [4] -0.058

C5orf34 (UniProt Q96MH7)
inactive: dasatinib -0.041 | [3] -0.058 | [6] 0.13

C1orf174 (UniProt Q8IYL3)
inactive: dasatinib 0.011 | [3] 0.057 | quisinostat -0.097 | [4] 0.067 | [5] -0.143

CACUL1 (UniProt Q86Y37)
inactive: dasatinib -0.094 | [3] 0.157 | quisinostat 0.025 | [4] 0.102 | [5] -0.1 | [6] -0.028

C16orf87 (UniProt Q6PH81)
inactive: dasatinib -0.013 | [3] -0.009 | quisinostat 0.056 | [4] -0.119 | [5] -0.099

C17orf80 (UniProt Q9BSJ5)
inactive: quisinostat 0.058 | [4] -0.028 | [5] 0.018 | [6] -0.013

C17orf53 (UniProt Q8N3J3)
inactive: dasatinib -0.075 | [3] 0.047 | quisinostat -0.079 | [4] 0.059 | [6] 0.068

CACNA1C isoform 2 (UniProt Q13936)
inactive: [5] -0.049 | [6] -0.048

C11orf24 (UniProt Q96F05)
inactive: quisinostat -0.181 | [4] 0.036

C12orf4 (UniProt Q9NQ89)
inactive: quisinostat 0.176 | [4] 0.083 | [5] -0.007 | [6] -0.322

C14orf119 (UniProt Q9NWQ9)
inactive: quisinostat 0.016 | [4] -0.057

C6orf120 (UniProt Q7Z4R8)
inactive: dasatinib -0.007 | [3] 0.147 | [5] 0.017 | [6] 0.041

C1R (UniProt P00736)
inactive: [5] 0.076

C11orf74 (UniProt Q86VG3)
inactive: dasatinib 0.072 | [3] -0.087 | quisinostat -0.015 | [4] -0.055 | [6] 0.119

CAPNS1 (UniProt K7ES78)
inactive: dasatinib -0.027 | [3] -0.006 | quisinostat 0.247 | [4] -0.002 | [5] 0.053 | [6] -0.099

CARD19 (UniProt Q96LW7)
inactive: quisinostat -0.091 | [4] 0.11

CAP1 (UniProt Q5T0R8)
inactive: [5] 0.052 | [6] -0.007

C8orf88 (UniProt P0DMB2)
inactive: dasatinib 0.07 | [3] -0.134 | quisinostat -0.042 | [4] -0.011 | [6] 0.084

C6orf136 isoform 4 (UniProt Q5SQH8)
inactive: dasatinib -0.029 | [3] -0.068 | [5] -0.019 | [6] -0.157

C2CD2 (UniProt Q9Y426)
inactive: dasatinib -0.202 | [3] 0.162 | quisinostat -0.266 | [4] 0.034 | [6] 0.039

CAP1 isoform 2 (UniProt Q01518)
inactive: dasatinib -0.009 | [3] -0.092 | quisinostat -0.154 | [4] 0.063 | [6] -0.002

C5orf24 (UniProt Q7Z6I8)
inactive: quisinostat 0.046 | [4] 0.034

C1orf226 isoform 2 (UniProt A1L170)
inactive: [5] -0.121

C1GALT1 (UniProt Q9NS00)
inactive: dasatinib -0.01 | [3] 0.016 | quisinostat 0.025 | [4] 0.028 | [5] 0.062 | [6] -0.068

CA6 (UniProt P23280)
inactive: [6] 2.17

Random excerpt: 4 records from the list
BUD13 (UniProt Q9BRD0)
inactive: nilotinib -0.036 | [1] 0.111 | dasatinib -0.094 | [2] 0 | [3] 0.019 | quisinostat -0.044 | tipifarnib 0.028 | [4] -0.014 | [6] -0.019

C2orf88 (UniProt Q9BSF0)
inactive: quisinostat 0.018 | [4] -0.058

C6orf120 (UniProt Q7Z4R8)
inactive: dasatinib -0.007 | [3] 0.147 | [5] 0.017 | [6] 0.041

C4orf46 (UniProt Q504U0)
inactive: dasatinib 0.047 | [3] 0.089 | [6] 0.042

(further entries)

C9orf16 (UniProt Q9BUW7)
inactive: dasatinib 0.088 | [3] 0.038 | quisinostat 0.172 | [4] -0.126 | [6] 0.114

C16orf70 (UniProt Q9BSU1)
inactive: dasatinib 0.042 | [3] -0.091 | quisinostat 0.036 | [4] -0.005 | [5] -0.001 | [6] 0.009
